Measured values from US8524666 (IBCC, dated 2013).

Key:
[1] = target: T1, glutathione S-transferase (UniProt P08515 1-218 = GST); test: GST pull-down from HUVEC membrane lysate, silver staining
T1 construct: Control protein on glutathione sepharose beads; also called GST; GST alone
Protocol: To discover endothelial protein targets for previously described angiogenesis inhibiting protein CD44-3MUT (SEQ ID NO: 13) (Päll T et al, Oncogene. 2004 Oct. 14; 23(47):7874-81.), we performed GST pull-down from HUVEC membrane lysates with GST tagged CD44-3MUT (GST-3MUT). For preparation of membrane fractions, adherent cells were washed with ice-cold PBS and lysed in 50 mM Tris pH 8.0, containing protease inhibitor cocktail (Complete, Roche Applied Science, Mannheim, Germany). Insoluble material was pelleted by centrifugation at 14000 rpm 30 min. 4° C. Pellet was then solubilised in buffer containing 2% CHAPS, 50 mM Tris pH 8.0, 50 mM NaCl, protease inhibitor cocktail and centrifuged 14000 rpm 10 min. at 4° C. Resulting lysate was precleared by incubation 2 h with 20 µg glutathione S-transferase immobilised onto 25 µl Glutathione Sepharose 4 Fast Flow beads (Amersham Biosciences, Uppsala, Sweden) at 4° C. After preclearing, lysate was incubated over-night at 4° C. with 10 µg GST, GST-HABD or GST-3MUT proteins immobilised onto 25 µl glutathione sepharose beads. After incubation beads were pelleted in cold centrifuge and washed 4 times with 200 µl buffer containing 50 mM Tris pH 8.0, 150 mM NaCl, protease inhibitor cocktail. Bound proteins were eluted 5 times with 25 µl 20 mM reduced glutathione, 50 mM Tris pH 8.0. […]

[2] = target: T2, GST-tagged CD44 hyaluronic acid binding-domain (CD44-HABD) (UniProt P16070 21-132); test: GST pull-down from transfected MCF-7 lysate, western blot
T2 construct: also called GST-HABD; not shown: glutathione S-transferase (GST) tag
Protocol: Full length vimentin or its deletion mutant constructs were transfected into MCF-7 cells. After incubation cells were lysed and lysate was used in pull-down reaction using GST-tagged CD44-HABD proteins immobilised onto glutathione sepharose beads. After pull-down, beads were washed and bound proteins were eluted. Eluates were analysed on western blot. A, vimentin deletion mutants used in pull-down reactions. B, WB of pull-down reactions from vimentin and its deletion mutant transfected cell lysates.
CD44-3MUT binding of vimentin deletion mutants was tested using GST pull-down from cell lysates. MCF-7 cells were transfected with vimentin deletion-constructs on 15 cm cell culture plates using 20 µg DNA with polyethyleneimine (PEI; DNA and PEI were used in ratio 1:2). Transfected cells were incubated at 37° C. for 72 h. Thereafter, adherent cells were washed once with cold PBS and lysed in 2 ml of lysis buffer containing 50 mM Tris pH 8.0, 50 mM NaCl, 2% CHAPS and protease inhibitor cocktail (Roche). For removal of insoluble material the lysates were centrifuged 14000 rpm 30 min at 4° C. Resulting lysates were used in GST pull-down. […] Eluates were pooled and after SDS PAAG pull-down reactions were analysed by western blotting with anti-His specific pAb (H-15) (Santa Cruz Biotechnology) or anti-vimentin specific pAb (Genway).

B1: endogenous vimentin of HUVEC (other)
chain: STRSVSSSSYRRNFGGPGTASRPSSSASYVTTSTRTYSLGSALRPSTSRSLYASSPGGVYATRSSAVRLRSSVPGVRLLQDSVDFSLADAINTEFKNTRTNEKVELQELNDRFANYIDKVRFLEQQNKILLAELEQLKGQGKSRLGDLYEEEMRELRRQVDQLTNDKARVEVERDNLAEDIMRLREKLQEEMLQREEAENTLQSFRQDFDNASLARLDLERKVESLQEEIAFLKKLHEEEIQELQAQIQEQHVQIDVDVSKPDLTAALRDVRQQYESVAAKNLQEAEEWYKSKFADLSEAANRNNDALRQAKQESTEYRRQVQSLTCEVDALKGTDESLERQMREMEENFAVEAADYQDTIGRLQDEIQNMKEEMARHLREYQDLLNVKMALDIEIATYRKLLEGEESRISLPLPNFSSLNLRETNEDSLPLVDTHSKRTLLIKTVETRDGQVINETSEHHDD
notes: Endogenous protein of human umbilical vein endothelial cells, tested in membrane lysates and in lysates of surface-biotinylated cells; also called endogenous cell surface expressed vimentin
B1: no binding [1].

B2: vimentin deletion mutant containing aa 97-466 of SEQ ID NO: 1 (other)
chain: KNTRTNEKVELQELNDRFANYIDKVRFLEQQNKILLAELEQLKGQGKSRLGDLYEEEMRELRRQVDQLTNDKARVEVERDNLAEDIMRLREKLQEEMLQREEAENTLQSFRQDFDNASLARLDLERKVESLQEEIAFLKKLHEEEIQELQAQIQEQHVQIDVDVSKPDLTAALRDVRQQYESVAAKNLQEAEEWYKSKFADLSEAANRNNDALRQAKQESTEYRRQVQSLTCEVDALKGTDESLERQMREMEENFAVEAADYQDTIGRLQDEIQNMKEEMARHLREYQDLLNVKMALDIEIATYRKLLEGEESRISLPLPNFSSLNLRETNEDSLPLVDTHSKRTLLIKTVETRDGQVINETSEHHDD
notes: Tested in lysate of transfected MCF-7 cells; The forward oligo carries an ATG start codon before the fragment; not shown: C-terminal Myc and His tags of the pcDNA3.1/MycHis B vector
B2: no binding [2].

B3: vimentin deletion mutant containing aa 134-466 of SEQ ID NO: 1 (other)
chain: ELEQLKGQGKSRLGDLYEEEMRELRRQVDQLTNDKARVEVERDNLAEDIMRLREKLQEEMLQREEAENTLQSFRQDFDNASLARLDLERKVESLQEEIAFLKKLHEEEIQELQAQIQEQHVQIDVDVSKPDLTAALRDVRQQYESVAAKNLQEAEEWYKSKFADLSEAANRNNDALRQAKQESTEYRRQVQSLTCEVDALKGTDESLERQMREMEENFAVEAADYQDTIGRLQDEIQNMKEEMARHLREYQDLLNVKMALDIEIATYRKLLEGEESRISLPLPNFSSLNLRETNEDSLPLVDTHSKRTLLIKTVETRDGQVINETSEHHDD
notes: Tested in lysate of transfected MCF-7 cells; not shown: EGFP and linker of the pEGFP-C3 vector
B3: no binding [2].
